Experimental data published in patent US8633219B2, “Combination therapy” (Japan Tobacco Inc., priority 2004, dated 2014).
Some results were stated once for a whole list of compounds, not compound by compound. At least one structure is not confirmed: it was looked up by name or label, or the drawing left a doubt. Some compounds share one range, which may span the group rather than tell each member.

System: HIV-1IIIB
Assay: Drug combination anti-HIV-1 cytoprotection assay (MacSynergy II) in CEM-SS cells infected with HIV-1IIIB
Format: cell-based
Conditions: based on mean synergy volume
Experimental: This work was performed using the Prichard and Shipman MacSynergy II three-dimensional model for statistical evaluation of combination anti-HIV assays. Using a standard microtiter plate format, each combination assay was performed in CEM-SS T-lymphocytic cells acutely infected with the a laboratory-adapted strain, HIV-1IIIB, and viral growth/inhibition was evaluated by measuring by monitoring virus-induced cytopathic effects (CPE) at the experimental endpoint.
AZT was dissolved in sterile dH2O and the remainder of the control compounds were dissolved in DMSO for analysis in the combination assays. […] CEM-SS cells were passaged in T-75 flasks prior to use in the antiviral assay. On the day preceding the assay, the cells were split 1:2 to assure they were in an exponential growth phase at the time of infection. Total cell and viability quantification was performed using a hemacytometer and trypan blue exclusion.
The virus used for these tests was the lymphocytropic virus strain HIV-1IIIB. This virus was obtained from the NIH AIDS Research and Reference Reagent Program and was grown in CEM-SS cells for the production of stock virus pools. For each assay, a pre-titered aliquot of virus was removed from the freezer (−80° C.) and allowed to thaw slowly to room temperature in a biological safety cabinet. The virus was resuspended and diluted into tissue culture medium such that the amount of virus added to each well in a volume of 50 μl was the amount determined to give between 85 to 95% cell killing at 6 days post-infection.
The format of the test plate was standardized as follows. Each plate contains cell control wells (cells only), virus control wells (cells plus virus), drug cytotoxicity wells (cells plus drug only), drug colorimetric control wells (drug only), as well as experimental wells (drug plus cells plus virus). The final volume in each well was 200 μl.
At assay termination, the assay plates were stained with the soluble tetrazolium-based dye MTS (CellTiter96 Reagent, Promega) to determine cell viability and quantify compound toxicity. […] At termination of the assay, 20 μl of MTS reagent was added per well. The microtiter plates were then incubated 4-6 hrs at 37° C. for the HIV cytoprotection assay; the incubation intervals were chosen based on empirically determined times for optimal dye reduction. Adhesive plate sealers were used in place of the lids, the sealed plate was inverted several times to mix the soluble formazan product and the plate was read spectrophotometrically at 490/650 nm with a Molecular Devices Vmax plate reader.
Combination antiviral assays were performed with CEM-SS cells utilizing the HIV-1IIIB strain of virus as described above.
The expected additive antiviral protection was subtracted from the experimentally determined antiviral activity at each combination concentration resulting in a positive value (synergy), a negative value (antagonism), or zero (additivity). The results of the combination assays are presented three dimensionally at each combination concentration, yielding a surface of activity extending above (synergy) or below (antagonism) the plane of additivity. The volume of the surface is calculated and expressed as a synergy volume (μM^2%) calculated at the 95% confidence interval.
Slightly synergistic activity and highly synergistic activity have been defined as yielding synergy volumes of 50-100 μM^2% and >100 μM^2%, respectively.

Structure (SMILES) | Drug interaction with Compound A (synergy criteria)
Cc1cn([C@H]2C[C@H](N=[N+]=[N-])[C@@H](CO)O2)c(=O)[nH]c1=O [AZT, zidovudine] | additive (Additive drug interactions have synergy volumes in the range of −50 μM^2% to 50 μM^2%)
O=C1Nc2ccc(Cl)cc2[C@@](C#CC2CC2)(C(F)(F)F)O1 [EFV, efavirenz] | additive (Additive drug interactions have synergy volumes in the range of −50 μM^2% to 50 μM^2%)
CC(C)(C)NC(=O)[C@@H]1CN(Cc2cccnc2)CCN1C[C@@H](O)C[C@@H](Cc1ccccc1)C(=O)N[C@H]1c2ccccc2C[C@H]1O [IDV, indinavir] | additive (Additive drug interactions have synergy volumes in the range of −50 μM^2% to 50 μM^2%)
Cc1c(O)cccc1C(=O)N[C@@H](CSc1ccccc1)[C@H](O)CN1C[C@H]2CCCC[C@H]2C[C@H]1C(=O)NC(C)(C)C [NFV, nelfinavir] | additive (Additive drug interactions have synergy volumes in the range of −50 μM^2% to 50 μM^2%)
C[C@H](Cn1cnc2c(N)ncnc21)OCP(=O)(O)O [PMPA, tenofovir] | additive (Additive drug interactions have synergy volumes in the range of −50 μM^2% to 50 μM^2%)
